Test [1] addresses OsFTL4 (nLUC fusion, LCI assay) (rice (Oryza sativa L.)). Briefly: split reporter; luciferase complementation imaging (LCI): nLUC and cLUC fusions co-expressed in N. benthamiana leaves by agroinfiltration; luminescence imaged.
The target of test [2] is OsFTL4 (GAL4-BD fusion, yeast two-hybrid bait) (rice (Oryza sativa L.)). Briefly: two-hybrid; GAL4-BD fusion as bait, GAL4-AD fusion as prey, co-transformed into Y2HGold yeast; growth on SD/-Trp/-Leu/-His/-Ade (QDO); 3-AT 25 mM (Fig. 5a).

Results are given in words; binding and its absence hold for the method and conditions named. Binding calls can cover weak binding; strength is not graded here. Tags and fused reporters may be left off the sequences shown. For part of these data: Binding seen in cells or lysates may run through a third protein.

B1: GF14f (cLUC fusion, LCI assay) (protein, UniProt Q06967 1-260)
chain: MSPAEASREENVYMAKLAEQAERYEEMVEFMEKVAKTTDVGELTVEERNLLSVAYKNVIGARRASWRIISSIEQKEESRGNEAYVASIKEYRSRIETELSKICDGILKLLDSHLVPSATAAESKVFYLKMKGDYHRYLAEFKSGAERKEAAENTLVAYKSAQDIALADLPTTHPIRLGLALNFSVFYYEILNSPDRACNLAKQAFDDAIAELDTLGEESYKDSTLIMQLLRDNLTLWTSDNAEDGGDEIKEAAKPEGEGH
Take B1: in test [1], the binding result was “binds”.

B2: GF14f (GAL4-AD fusion, yeast two-hybrid prey) (protein, UniProt Q06967 1-260)
chain: MSPAEASREENVYMAKLAEQAERYEEMVEFMEKVAKTTDVGELTVEERNLLSVAYKNVIGARRASWRIISSIEQKEESRGNEAYVASIKEYRSRIETELSKICDGILKLLDSHLVPSATAAESKVFYLKMKGDYHRYLAEFKSGAERKEAAENTLVAYKSAQDIALADLPTTHPIRLGLALNFSVFYYEILNSPDRACNLAKQAFDDAIAELDTLGEESYKDSTLIMQLLRDNLTLWTSDNAEDGGDEIKEAAKPEGEGH
In the case of B2, the binding result in test [2] was “binds”.

B3: GF14h (cLUC fusion, LCI assay) (protein, UniProt Q2R1D5 1-230)
chain: MKEREKVVRLAKLAEQAERYDDMVEFMKTLARMDVDMSAEERLLFSVGFKKTIGARRASWRILESLEQKVTAGDQPGVTINGYKKKVEDELRAVCNEVLSIIAIHCLPLANSGENVVFFYKMKGDYYRYLAEFSTGTEKKAATDQSLMAYQAWPCAQLFSLLEIMNSPERASQVAKQALDEATAEINSAGVEGYKDSMLMMQLLKENLALWTSELTGGETSKDDDVVMEG
As to B3, the binding entry in test [1] is listed as “binds”.

B4: GF14h (GAL4-AD fusion, yeast two-hybrid prey) (protein, UniProt Q2R1D5 1-230)
chain: MKEREKVVRLAKLAEQAERYDDMVEFMKTLARMDVDMSAEERLLFSVGFKKTIGARRASWRILESLEQKVTAGDQPGVTINGYKKKVEDELRAVCNEVLSIIAIHCLPLANSGENVVFFYKMKGDYYRYLAEFSTGTEKKAATDQSLMAYQAWPCAQLFSLLEIMNSPERASQVAKQALDEATAEINSAGVEGYKDSMLMMQLLKENLALWTSELTGGETSKDDDVVMEG
In the case of B4, the binding entry in test [2] is “binds”.

B5: GF14a (GAL4-AD fusion, yeast two-hybrid prey) (protein, UniProt Q84J55 1-264)
chain: MAAAAGGGTREEMVYMAKLAEQAERYEEMVEFMEKVVTAAAAGGGGELTVEERNLLSVAYKNVIGARRASWRIVSSIEQKEEGRGAAGHAAAARSYRARVEAELSNICAGILRLLDERLVPAAAAVDAKVFYLKMKGDYHRYLAEFKTGAERKDAADATLAAYQAAQDIAMKELSPTHPIRLGLALNFSVFYYEILNSPDRACTLAKQAFDEAISELDTLGEESYKDSTLIMQLLRDNLTLWTSDMQDDGGDEMRDATKPEDEH
B5: the binding entry in test [2] was “binds”.

B6: GF14a (cLUC fusion, LCI assay) (protein, UniProt Q84J55 1-264)
chain: MAAAAGGGTREEMVYMAKLAEQAERYEEMVEFMEKVVTAAAAGGGGELTVEERNLLSVAYKNVIGARRASWRIVSSIEQKEEGRGAAGHAAAARSYRARVEAELSNICAGILRLLDERLVPAAAAVDAKVFYLKMKGDYHRYLAEFKTGAERKDAADATLAAYQAAQDIAMKELSPTHPIRLGLALNFSVFYYEILNSPDRACTLAKQAFDEAISELDTLGEESYKDSTLIMQLLRDNLTLWTSDMQDDGGDEMRDATKPEDEH
Turning to B6, the binding result in test [1] is on record as “binds”.

B7: GF14d (cLUC fusion, LCI assay) (protein, UniProt Q2R2W2 1-265)
chain: MSPAEPTREESVYKAKLAEQAERYEEMVEYMERVARAAGGASGGEELTVEERNLLSVAYKNVIGARRASWRIISSIEQKEEGRGNDAHAATIRSYRGKIEAELARICDGILALLDSHLVPSAGAAESKVFYLKMKGDYHRYLAEFKSGDERKQAAESTMNAYKAAQDIALADLAPTHPIRLGLALNFSVFYYEILNSPDRACNLAKQAFDEAISELDSLGEESYKDSTLIMQLLRDNLTLWTSDANDDGGDEIKEAAAPKEPGDQ
Consider B7, for which the binding result in test [1] was “binds”.

B8: GF14d (GAL4-AD fusion, yeast two-hybrid prey) (protein, UniProt Q2R2W2 1-265)
chain: MSPAEPTREESVYKAKLAEQAERYEEMVEYMERVARAAGGASGGEELTVEERNLLSVAYKNVIGARRASWRIISSIEQKEEGRGNDAHAATIRSYRGKIEAELARICDGILALLDSHLVPSAGAAESKVFYLKMKGDYHRYLAEFKSGDERKQAAESTMNAYKAAQDIALADLAPTHPIRLGLALNFSVFYYEILNSPDRACNLAKQAFDEAISELDSLGEESYKDSTLIMQLLRDNLTLWTSDANDDGGDEIKEAAAPKEPGDQ
In the case of B8, in test [2], the binding result is recorded as “binds”.

B9: GF14g (GAL4-AD fusion, yeast two-hybrid prey) (protein, UniProt Q5QNB8 1-257)
chain: MAPSDDLVYMAKLAEQAERYDEMVEAMNSVAKLDEGLTKEERNLLSVGYKNLIGAKRAAMRIIGSIELKEETKGKESHVRQTAEYRRKVEAEMDKICCDVINIIDKYLIPHSSGAESSVFYYKMKGDYYRYLAEFKTGTEKIEVSELSLNAYETASKTAQTDLTPTDPIRLGLALNISVFYCEIMNSPDKACQLAKNAFDEAVAELPSLSEENYKDSTLIMQLLRDNLALWNSDMADDADDIRERTDTTGAKGDPAA
For the molecule B9, the binding entry in test [2] was “no binding”.

B10: GF14g (cLUC fusion, LCI assay) (protein, UniProt Q5QNB8 1-257)
chain: MAPSDDLVYMAKLAEQAERYDEMVEAMNSVAKLDEGLTKEERNLLSVGYKNLIGAKRAAMRIIGSIELKEETKGKESHVRQTAEYRRKVEAEMDKICCDVINIIDKYLIPHSSGAESSVFYYKMKGDYYRYLAEFKTGTEKIEVSELSLNAYETASKTAQTDLTPTDPIRLGLALNISVFYCEIMNSPDKACQLAKNAFDEAVAELPSLSEENYKDSTLIMQLLRDNLALWNSDMADDADDIRERTDTTGAKGDPAA
On to B10, for which the binding entry in test [1] is listed as “no binding”.

B11: GF14c (cLUC fusion, LCI assay) (protein, UniProt Q6ZKC0 1-256)
chain: MSREENVYMAKLAEQAERYEEMVEYMEKVAKTVDVEELTVEERNLLSVAYKNVIGARRASWRIVSSIEQKEEGRGNEEHVTLIKEYRGKIEAELSKICDGILKLLDSHLVPSSTAAESKVFYLKMKGDYHRYLAEFKTGAERKEAAESTMVAYKAAQDIALADLAPTHPIRLGLALNFSVFYYEILNSPDKACNLAKQAFDEAISELDTLGEESYKDSTLIMQLLRDNLTLWTSDLTEDGGDEVKEASKGDACEGQ
Consider B11, for which the binding entry in test [1] was “binds”.

B12: GF14c (GAL4-AD fusion, yeast two-hybrid prey) (protein, UniProt Q6ZKC0 1-256)
chain: MSREENVYMAKLAEQAERYEEMVEYMEKVAKTVDVEELTVEERNLLSVAYKNVIGARRASWRIVSSIEQKEEGRGNEEHVTLIKEYRGKIEAELSKICDGILKLLDSHLVPSSTAAESKVFYLKMKGDYHRYLAEFKTGAERKEAAESTMVAYKAAQDIALADLAPTHPIRLGLALNFSVFYYEILNSPDKACNLAKQAFDEAISELDTLGEESYKDSTLIMQLLRDNLTLWTSDLTEDGGDEVKEASKGDACEGQ
Turning to B12, the binding entry in test [2] is reported as “binds”.

Source of the values: publication PMC9448835.
